From patent publication EP1298214B1, “Plant thioesterases” (Calgene LLC, priority 1990, dated 1991) come the findings set out here.

Protein sequences, listed by entry. Tags and fused reporters are not part of them. Residues count along the entry.
UniProt P0A6A8, residues 2-78: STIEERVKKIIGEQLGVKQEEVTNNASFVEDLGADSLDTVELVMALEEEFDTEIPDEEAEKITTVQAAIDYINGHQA

No constants are given. Whether binding was seen depends on the method and setting. Some binding calls cover weakened binding; strength is not graded here.

Assay [1] concerns the target Escherichia coli acyl carrier protein coupled to cyanogen bromide-activated Sepharose 4B (Escherichia coli) (UniProt P0A6A8). The assay is described as follows: affinity chromatography on immobilized E. coli ACP, fractions assayed for activity.
Assay [2] has the same target. In words: affinity chromatography on E. coli ACP coupled to Sepharose 4B; eluted with a 100-500 mM phosphate gradient.

B1: Bay C12-preferring acyl-ACP thioesterase purified from immature Umbellularia californica cotyledons (enzyme)
chain: LEWKPKPKLPQLLDDHFGLHGLVFRRTFAIRSYEVGPDRSTSILAVMNHMQEATLNHAKSVGILGDGFGTTLEMSKRDLMWVVRRTHVAVERYPTWGDTVEVECWIGASGNNGMRRDFLVRDCKTGEILTRCTSLSVLMNTRTRRLSTIPDEVRGEIGPAFIDNVAVKDDEIKKLQKLNDSTADYIQGGLTPRWNDLDVNQHVNNLKYVAWVFETVPDSIFESHHISSFTLEYRRECTRDSVLRSLTTVSGGSSEAGLVCDHLLQLEGGSEVLRARTEWRPKLTDSFRGISVIPAEPRV
As for B1, the binding entry in assay [1] and in assay [2] was “binds” throughout.
